# Test results: patent US11046962B2, “Lux expression in cells and methods of use” (490 BioTech, Inc., priority 2019, dated 2021)
# Entries after “also recorded” stand apart in the source; their conditions may differ. At least one compound was matched to its structure with a doubt left.
# Tests used:
# [1] = tested on: tetracycline responsive promoter with CBA-driven reverse transactivator (rtTA) in iPSCs; experiment: Gene expression reporting in tet-luxCDABEF iPSCs with rtTA (doxycycline inducible); type: cell-based, Human; settings: rtTA line, 4 and 24 hours exposure
# [2] = tested on: tetracycline responsive promoter with CBA-driven transactivator (tTA) in iPSCs; experiment: Gene expression reporting in tet-luxCDABEF iPSCs with tTA (doxycycline repressible); type: cell-based, Human; settings: tTA line
structure (smiles),measurement,setting,value
C[C@H]1c2cccc(O)c2C(=O)C2=C(O)[C@]3(O)C(=O)C(C(N)=O)=C(O)[C@@H](N(C)C)[C@@H]3[C@@H](O)[C@@H]21 [doxycycline],autobioluminescent response to increasing amounts,[1],increase in autobioluminescent output; also recorded: clear pattern of autobioluminescent induction
same,autobioluminescent output at 4.1 μg/mL compared to <0.1 μg/mL,[2]; 4.1 μg/mL,reduction in autobioluminescent output
same,effect on continuous autobioluminescence,[2]; increasing amounts,shut off
